From PubChem BioAssay AID1347423 (Functional Genomics Laboratory (NCATS/FGL), 2020)
About 210 (0.4%) of roughly 52,000 sequences were called active.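 Rule for the calls: active = gene whose silencing raises cell survival under the drug, median off-target-corrected z-score across its silencing RNAs 2 or more; inactive = the rest.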 The list shows a part of the results.

Assay: Resistance to Poly (ADP-Ribose) Polymerase inhibitor: Gene Identification via Genome-wide siRNA Screen
Conditions: mouse BRCA2 R2336H ES cells, olaparib, CellTiter-Glo viability; stronger effect = higher value
Method in brief: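 Mouse BRCA2 R2336H ES cells were reverse-transfected with siRNA (20 nM final), treated at 48 h with 500 nM olaparib, and read by CellTiter-Glo after 72 h. Scores: MAD-based z per siRNA, median per gene, seed off-target correction.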

| Sequence | z-score |
| --- | --- |
| GGAUAAGAGGGUGAAGUCATT against Cdyl2 | inactive: 1.62 |
| GCCAUGACUAUUCCAGCUUTT against Lgals4 | inactive: -0.568 |
| GGCUGAAAUAAAACAAGAATT against 2010315L10Rik | inactive: -0.67 |
| UUUCCCGACCUCUCCACUATT against Olfr463 | inactive: -1.08 |
| GGCCAAGAUCCAGAAGAAGTT against Ush1g | inactive: -2.71 |
| GUACAAGUGUGGACCCUUATT against Chchd2 | inactive: -2.01 |
| GAGUCUAGACAGUAUGUUCTT against 2900010J23Rik | inactive: -1.55 |
| GCAGAUGACUAUCGGAAGUTT against Usp53 | inactive: -0.145 |
| GGGUGAUACUGACAAUCAUTT against Fhod1 | inactive: -0.652 |
| GGAAUACGGAAUCAUGGUUTT against BC037708 | inactive: 0.199 |
| GCUGCCGUUUAAAUAUAUGTT against D10Wsu102e | inactive: -1.16 |
| GCAGUGAACAGCUAUUAACTT against Styx | inactive: -0.0524 |
| GGUGCUGAAGAAGCACCAUTT against Stat5a | inactive: -0.354 |
| GGACCUAAUAUCAUACUCATT against 4632407F12Rik | inactive: -0.94 |
| GGAUAACUACAGGAAUAAGTT against Spam1 | inactive: 0.143 |
| CCCUCCGAAAAUUUUUCUGTT against Defb14 | inactive: 0.36 |
| GGAAAGCAGACAUCGACCUTT against Rps18 | inactive: -2.2 |
| GGCCAAAGUGCAGAUGAAATT against 8230402K04Rik | inactive: 0.762 |
| GCCAGUUGUGACAAAACUATT against Abca1 | inactive: -1.41 |
| UACAGUAGAGUCAUUUUCUTT against V1rd17 | inactive: 0.207 |
| GGAUAAGACAAGAAGAGAUTT against A230079K17Rik | inactive: 0.433 |
| GGAAUGAGAUUAUUUCUUGTT against Astn1 | inactive: 0.303 |

Exported as tab-separated lines: part of the list above
Sequence	z-score
GGGUGAUACUGACAAUCAUTT against Fhod1	inactive: -0.652
GGAAUACGGAAUCAUGGUUTT against BC037708	inactive: 0.199
GCUGCCGUUUAAAUAUAUGTT against D10Wsu102e	inactive: -1.16
GCAGUGAACAGCUAUUAACTT against Styx	inactive: -0.0524

Later entries:

| Sequence | z-score |
| --- | --- |
| CCCAUUGCCAGUACAACUUTT against Cxcr3 | inactive: -1.42 |
| CCCAUGGAAAUCCUCAGUATT against Ppgb | inactive: -1.56 |
| CCUUGUUUUUCACAAAUCATT against Usp7 | inactive: -1.46 |
| GGAAUGAGGGUAAUGAAUATT against M6prbp1 | inactive: 1.42 |
| GGCAGCUAUAGGUUAGAUUTT against LOC434228 | inactive: 1.57 |
| GGCUAGGACCCAAGUUCUATT against Thra | inactive: -0.0321 |
| CCUUACCAGGAAACAUAUUTT against 1810055E12Rik | inactive: -1.62 |
| CCAGGAACAGCUAUCGGAUTT against Homer2 | inactive: -2.24 |
| GGCUCUUUAUGGACAUGGCTT against Tac1 | inactive: 0.45 |
| GCAUGAUAGGCCUGUUAUUTT against 4.93E+23 | inactive: -0.318 |
| GCAAUAUUUCAGCACACUGTT against 5730420B22Rik | inactive: 0.729 |
| GGCAGAUAUUUAGAUGAUGTT against Pdyn | inactive: -0.995 |
| GGCUACCAUAGGUUUUAAUTT against LOC574418 | inactive: 0.012 |
| GCUGCUUUAUCGAGUGGUUTT against Capn8 | inactive: -1.37 |
| GGCUUCCUACCUAAGGCUUTT against 6720463M24Rik | inactive: -0.264 |
| CGGAUUCAGUAUUAGCAAUTT against Ogt | inactive: -1.49 |
| GGAAAUCCUGCUGUAAGGATT against V1re10 | inactive: -1.89 |
| GGUGGAAGGCAACAUAUAUTT against 1110059P08Rik | inactive: -1.23 |
| GGAAAGAUCAUGGACAAGUTT against Dtna | inactive: -0.359 |
| CCUGCAUUAGCAUGUUAGGTT against Gral | inactive: 0.475 |
| CCGUUACAGUUAAAUUUACTT against Per3 | inactive: 1.46 |
| GCAGUCACUAAAUUGGAAATT against Eif3s1 | inactive: 0.901 |

| Sequence | z-score |
| --- | --- |
| GGUUUCAUGUUCUGAAACUTT against 2210415K24Rik | inactive: 0.941 |
| GGCCAAGAAAAACUACUAUTT against Kcnk5 | inactive: -0.586 |
| GGAAUUCUAGACAAUCAAGTT against Ctso | inactive: -0.477 |
| GGAGAACAUAAUGAAAUCUTT against D0HXS9928E | inactive: 0.527 |
| CCCAAUGACAAUAAAGACCTT against Mmp25 | inactive: -0.156 |
| UUCUGUGAUCAUGUCUUCUTT against Tuba2 | inactive: -2.28 |
| CCUUGUGUAUGAAAUACUUTT against Taf1b | inactive: -1.97 |
| GGCCUAUCCUCCAACAACATT against 2610311I19Rik | inactive: 0.159 |
| GGUGGUUCGAUAUGAGGCATT against Prom2 | inactive: -1.17 |
| GGAAUCUUUAUGUCGGCACTT against Tgfbrap1 | inactive: 0.447 |
| GGAAGUAGAGACAGGAGGATT against AF119384 | inactive: 1.25 |
| CCUAUUACCAGUCUUAUGATT against Zfp458 | inactive: 0.128 |
| GGUUGAAUCUGUAAACAUGTT against C130058G22Rik | inactive: -0.288 |
| GGCCAGAGACUGCCUGAUUTT against MGC29978 | inactive: -2.63 |
| GGAGAUCGUCUCUCUCAUCTT against 2500001H09Rik | inactive: -0.345 |
| GCUACCAUCGGUUUUCCGATT against Cdc6 | inactive: 0.952 |
| GGAAAUUGAUCAUUGACCATT against 4933417K04Rik | inactive: 0.559 |
| CCACAGAUUACAUUUAUCCTT against Sephs1 | inactive: 0.234 |
| GCGCAACUGAAAUAAAUGATT against Hoxc9 | inactive: -1.04 |
| CCAAUCCAACAGCAUAUUUTT against Vkorc1 | inactive: -0.646 |
| GGUUAGAAUUUGCUAGAAATT against D330038I09Rik | inactive: -0.405 |
| GGACCGAGCCAGAUUCUUCTT against 4930500E24Rik | inactive: 0.586 |
